The text below walks through data of the supplement of paper PMC11732987, “Enantioselective OTUD7B fragment discovery through chemoproteomics screening and high-throughput optimisation” (Communications Chemistry, 2025).

Amino acid sequences for entries named in this document (tags omitted). A change or cut given only in a name is not applied to a line headed by its entry. Residues count along the entry.
UniProt Q9UJF2: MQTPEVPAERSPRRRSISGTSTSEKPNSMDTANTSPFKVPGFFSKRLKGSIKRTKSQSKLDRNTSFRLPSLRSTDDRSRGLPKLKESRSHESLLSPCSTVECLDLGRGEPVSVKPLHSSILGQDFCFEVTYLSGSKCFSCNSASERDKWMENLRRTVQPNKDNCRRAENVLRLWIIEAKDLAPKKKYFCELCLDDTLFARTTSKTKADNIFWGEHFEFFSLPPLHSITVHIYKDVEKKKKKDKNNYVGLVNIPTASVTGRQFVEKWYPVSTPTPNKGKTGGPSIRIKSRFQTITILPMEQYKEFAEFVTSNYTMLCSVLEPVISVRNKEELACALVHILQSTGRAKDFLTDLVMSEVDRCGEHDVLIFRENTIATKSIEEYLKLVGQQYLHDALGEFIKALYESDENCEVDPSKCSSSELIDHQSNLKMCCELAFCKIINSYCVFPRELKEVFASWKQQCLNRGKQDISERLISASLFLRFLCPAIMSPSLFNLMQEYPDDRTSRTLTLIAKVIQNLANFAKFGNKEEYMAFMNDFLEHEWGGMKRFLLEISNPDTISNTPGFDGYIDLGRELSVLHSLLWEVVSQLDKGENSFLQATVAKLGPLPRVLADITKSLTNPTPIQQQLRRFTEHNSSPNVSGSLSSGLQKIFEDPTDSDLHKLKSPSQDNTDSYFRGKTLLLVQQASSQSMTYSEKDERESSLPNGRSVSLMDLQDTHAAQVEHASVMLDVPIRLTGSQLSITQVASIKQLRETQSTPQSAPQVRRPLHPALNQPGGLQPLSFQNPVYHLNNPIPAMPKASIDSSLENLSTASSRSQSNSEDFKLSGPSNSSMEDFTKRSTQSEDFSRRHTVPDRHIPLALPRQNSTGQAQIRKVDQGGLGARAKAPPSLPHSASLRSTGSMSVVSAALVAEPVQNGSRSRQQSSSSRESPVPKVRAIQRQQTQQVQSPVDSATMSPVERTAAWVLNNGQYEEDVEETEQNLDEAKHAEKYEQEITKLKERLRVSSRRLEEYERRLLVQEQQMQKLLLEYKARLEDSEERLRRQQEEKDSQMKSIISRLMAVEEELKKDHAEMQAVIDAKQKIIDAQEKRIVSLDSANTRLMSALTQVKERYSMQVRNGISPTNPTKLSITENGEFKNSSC
UniProt Q9H6Z4, 96-121: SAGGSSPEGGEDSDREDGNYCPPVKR
UniProt Q13129: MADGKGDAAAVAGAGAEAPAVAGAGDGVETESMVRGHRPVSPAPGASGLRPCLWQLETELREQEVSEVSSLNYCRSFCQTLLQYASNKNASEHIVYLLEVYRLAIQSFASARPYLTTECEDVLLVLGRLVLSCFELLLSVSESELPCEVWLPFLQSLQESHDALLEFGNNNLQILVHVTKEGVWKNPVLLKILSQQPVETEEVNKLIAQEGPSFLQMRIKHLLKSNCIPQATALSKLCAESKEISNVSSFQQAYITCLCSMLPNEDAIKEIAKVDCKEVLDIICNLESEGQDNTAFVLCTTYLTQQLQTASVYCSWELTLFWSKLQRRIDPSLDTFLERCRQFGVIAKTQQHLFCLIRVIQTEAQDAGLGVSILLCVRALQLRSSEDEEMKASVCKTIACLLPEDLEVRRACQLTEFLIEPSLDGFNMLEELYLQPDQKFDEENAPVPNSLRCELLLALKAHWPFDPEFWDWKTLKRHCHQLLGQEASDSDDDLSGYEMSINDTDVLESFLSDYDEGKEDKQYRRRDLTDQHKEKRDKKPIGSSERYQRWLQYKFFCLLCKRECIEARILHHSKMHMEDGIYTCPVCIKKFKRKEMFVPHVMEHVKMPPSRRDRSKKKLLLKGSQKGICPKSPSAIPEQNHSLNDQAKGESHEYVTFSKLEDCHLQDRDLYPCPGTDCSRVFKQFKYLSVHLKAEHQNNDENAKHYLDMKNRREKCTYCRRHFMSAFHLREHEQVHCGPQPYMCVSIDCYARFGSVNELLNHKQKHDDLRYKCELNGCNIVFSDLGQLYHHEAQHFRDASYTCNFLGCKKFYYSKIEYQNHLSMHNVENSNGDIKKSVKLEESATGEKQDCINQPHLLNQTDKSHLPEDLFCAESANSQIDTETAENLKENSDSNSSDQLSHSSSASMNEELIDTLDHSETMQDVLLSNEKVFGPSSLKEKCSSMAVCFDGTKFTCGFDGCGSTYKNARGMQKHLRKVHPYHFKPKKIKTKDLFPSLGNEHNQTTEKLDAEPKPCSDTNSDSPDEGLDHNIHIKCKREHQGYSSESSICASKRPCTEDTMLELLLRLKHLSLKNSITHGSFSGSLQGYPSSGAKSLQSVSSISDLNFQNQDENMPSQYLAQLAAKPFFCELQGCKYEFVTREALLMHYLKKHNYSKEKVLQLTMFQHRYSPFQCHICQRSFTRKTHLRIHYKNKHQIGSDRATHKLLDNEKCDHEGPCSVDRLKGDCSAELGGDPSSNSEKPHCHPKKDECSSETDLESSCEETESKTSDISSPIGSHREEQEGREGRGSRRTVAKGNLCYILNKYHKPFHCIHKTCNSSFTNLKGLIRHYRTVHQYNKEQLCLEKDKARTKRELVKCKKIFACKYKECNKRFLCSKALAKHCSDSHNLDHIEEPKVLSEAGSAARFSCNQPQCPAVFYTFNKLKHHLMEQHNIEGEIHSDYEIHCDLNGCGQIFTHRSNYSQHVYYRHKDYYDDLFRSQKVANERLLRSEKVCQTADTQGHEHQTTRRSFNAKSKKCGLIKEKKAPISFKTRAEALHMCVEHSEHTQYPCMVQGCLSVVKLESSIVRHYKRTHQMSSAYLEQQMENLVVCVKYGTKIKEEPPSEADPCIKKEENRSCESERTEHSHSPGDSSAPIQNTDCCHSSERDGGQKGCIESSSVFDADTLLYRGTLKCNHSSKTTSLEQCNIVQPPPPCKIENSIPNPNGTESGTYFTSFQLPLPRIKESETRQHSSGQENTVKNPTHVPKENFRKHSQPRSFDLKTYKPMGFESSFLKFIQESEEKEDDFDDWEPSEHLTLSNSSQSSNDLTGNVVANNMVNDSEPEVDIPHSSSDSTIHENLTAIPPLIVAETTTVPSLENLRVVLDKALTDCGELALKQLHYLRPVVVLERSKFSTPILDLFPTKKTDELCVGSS
UniProt Q8TEU7, 1363-1383: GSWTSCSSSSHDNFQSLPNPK
UniProt Q14644, 310-329: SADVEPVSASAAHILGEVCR
UniProt Q96IZ5: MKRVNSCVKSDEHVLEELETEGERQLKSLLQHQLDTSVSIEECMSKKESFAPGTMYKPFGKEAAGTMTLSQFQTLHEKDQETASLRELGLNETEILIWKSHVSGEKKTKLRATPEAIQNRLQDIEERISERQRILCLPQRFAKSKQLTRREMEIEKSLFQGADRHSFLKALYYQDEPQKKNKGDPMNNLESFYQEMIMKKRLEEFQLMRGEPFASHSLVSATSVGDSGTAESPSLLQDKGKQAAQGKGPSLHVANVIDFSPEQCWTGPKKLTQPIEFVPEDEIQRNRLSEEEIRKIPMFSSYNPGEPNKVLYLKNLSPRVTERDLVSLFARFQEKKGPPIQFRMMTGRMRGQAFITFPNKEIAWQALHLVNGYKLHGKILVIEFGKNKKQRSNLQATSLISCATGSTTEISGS
UniProt O60518: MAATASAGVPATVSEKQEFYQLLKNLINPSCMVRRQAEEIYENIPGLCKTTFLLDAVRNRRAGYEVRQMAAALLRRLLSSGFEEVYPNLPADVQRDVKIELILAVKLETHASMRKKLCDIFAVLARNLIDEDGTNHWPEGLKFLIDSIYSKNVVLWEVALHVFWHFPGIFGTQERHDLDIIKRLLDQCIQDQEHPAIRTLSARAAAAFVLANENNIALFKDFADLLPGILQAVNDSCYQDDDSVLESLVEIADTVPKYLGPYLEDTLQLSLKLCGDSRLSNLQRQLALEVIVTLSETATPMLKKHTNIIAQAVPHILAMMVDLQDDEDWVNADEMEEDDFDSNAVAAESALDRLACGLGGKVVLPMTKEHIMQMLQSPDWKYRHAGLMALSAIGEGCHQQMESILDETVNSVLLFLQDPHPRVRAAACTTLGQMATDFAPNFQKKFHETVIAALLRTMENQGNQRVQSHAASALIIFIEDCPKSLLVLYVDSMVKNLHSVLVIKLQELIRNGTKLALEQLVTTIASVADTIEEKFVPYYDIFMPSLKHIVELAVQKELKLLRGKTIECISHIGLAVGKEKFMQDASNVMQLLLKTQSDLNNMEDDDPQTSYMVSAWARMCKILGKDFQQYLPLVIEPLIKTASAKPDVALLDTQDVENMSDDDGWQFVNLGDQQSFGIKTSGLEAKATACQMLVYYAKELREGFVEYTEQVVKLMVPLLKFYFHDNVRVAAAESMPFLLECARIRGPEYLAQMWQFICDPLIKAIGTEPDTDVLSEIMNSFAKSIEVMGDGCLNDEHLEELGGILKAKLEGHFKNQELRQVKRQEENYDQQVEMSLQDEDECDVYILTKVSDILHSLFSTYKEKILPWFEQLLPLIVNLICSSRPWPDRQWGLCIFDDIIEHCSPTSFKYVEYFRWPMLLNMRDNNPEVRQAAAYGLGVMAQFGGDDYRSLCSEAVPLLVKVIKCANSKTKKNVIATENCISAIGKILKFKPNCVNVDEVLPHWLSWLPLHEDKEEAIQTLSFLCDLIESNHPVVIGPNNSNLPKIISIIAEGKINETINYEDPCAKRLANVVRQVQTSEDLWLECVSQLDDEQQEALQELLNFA
UniProt Q9H871, 307-327: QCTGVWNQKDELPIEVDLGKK
UniProt P06400: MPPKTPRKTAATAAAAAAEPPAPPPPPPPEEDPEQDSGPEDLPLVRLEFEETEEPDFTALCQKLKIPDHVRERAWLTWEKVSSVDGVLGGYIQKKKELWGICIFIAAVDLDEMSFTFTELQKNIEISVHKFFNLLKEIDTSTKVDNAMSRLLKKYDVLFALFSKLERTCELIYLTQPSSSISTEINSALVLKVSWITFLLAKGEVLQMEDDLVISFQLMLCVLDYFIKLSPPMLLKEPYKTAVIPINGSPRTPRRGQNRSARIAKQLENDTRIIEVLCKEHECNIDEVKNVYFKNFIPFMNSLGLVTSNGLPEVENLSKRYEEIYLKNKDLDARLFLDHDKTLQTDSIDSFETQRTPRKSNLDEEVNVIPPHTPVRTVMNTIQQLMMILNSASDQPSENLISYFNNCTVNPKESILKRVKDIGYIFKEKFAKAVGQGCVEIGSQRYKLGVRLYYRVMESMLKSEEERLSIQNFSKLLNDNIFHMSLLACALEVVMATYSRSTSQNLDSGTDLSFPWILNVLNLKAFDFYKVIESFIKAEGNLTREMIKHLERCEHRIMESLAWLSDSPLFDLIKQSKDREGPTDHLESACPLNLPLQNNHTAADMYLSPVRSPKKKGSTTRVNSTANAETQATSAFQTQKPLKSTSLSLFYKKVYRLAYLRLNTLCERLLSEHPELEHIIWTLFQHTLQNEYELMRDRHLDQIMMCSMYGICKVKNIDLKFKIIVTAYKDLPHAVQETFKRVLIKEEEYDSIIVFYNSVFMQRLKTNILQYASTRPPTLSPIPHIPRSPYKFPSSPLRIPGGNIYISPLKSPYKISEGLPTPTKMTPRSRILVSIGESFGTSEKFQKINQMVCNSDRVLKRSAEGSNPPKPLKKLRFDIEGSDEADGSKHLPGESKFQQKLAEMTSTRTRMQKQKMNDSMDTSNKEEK
UniProt P35251, 101-120: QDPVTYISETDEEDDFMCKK
UniProt Q96S59, 587-606: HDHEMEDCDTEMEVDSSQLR
UniProt Q9BRS2: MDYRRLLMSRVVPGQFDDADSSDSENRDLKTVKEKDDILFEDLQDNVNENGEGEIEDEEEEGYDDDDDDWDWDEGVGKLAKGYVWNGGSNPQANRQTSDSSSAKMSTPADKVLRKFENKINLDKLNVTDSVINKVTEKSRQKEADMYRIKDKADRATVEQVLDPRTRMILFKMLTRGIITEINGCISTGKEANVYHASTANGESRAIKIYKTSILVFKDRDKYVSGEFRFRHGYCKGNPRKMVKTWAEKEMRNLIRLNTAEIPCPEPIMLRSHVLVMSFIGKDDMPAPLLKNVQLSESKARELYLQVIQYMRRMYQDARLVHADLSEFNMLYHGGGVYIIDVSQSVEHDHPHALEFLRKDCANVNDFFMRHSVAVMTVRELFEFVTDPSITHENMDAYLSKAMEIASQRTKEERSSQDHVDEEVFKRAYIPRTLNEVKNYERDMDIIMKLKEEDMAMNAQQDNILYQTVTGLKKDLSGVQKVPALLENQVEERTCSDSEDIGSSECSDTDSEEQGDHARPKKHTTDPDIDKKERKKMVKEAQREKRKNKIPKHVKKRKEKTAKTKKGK
UniProt Q9BWF3: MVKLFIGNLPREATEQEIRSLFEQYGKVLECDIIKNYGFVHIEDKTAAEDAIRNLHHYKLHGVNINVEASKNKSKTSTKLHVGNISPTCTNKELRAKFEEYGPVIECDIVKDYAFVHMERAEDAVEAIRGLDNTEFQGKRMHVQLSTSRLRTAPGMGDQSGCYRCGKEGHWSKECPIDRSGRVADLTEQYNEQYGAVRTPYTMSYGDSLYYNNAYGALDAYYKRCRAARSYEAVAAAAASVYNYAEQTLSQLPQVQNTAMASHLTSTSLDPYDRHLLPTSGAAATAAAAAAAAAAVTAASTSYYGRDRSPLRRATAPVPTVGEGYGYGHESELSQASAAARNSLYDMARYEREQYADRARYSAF
UniProt O43353, 411-430: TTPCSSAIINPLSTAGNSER

This is one part of the list. The data scatter; read single values as rough.

Compound in the first test: ClCC(=O)N[C@@H]1CCCc2ccccc12
Nature of the test: log2 mean competition ratio of IA-DTB cysteine labelling (DMSO/compound) (log2 ratio); higher = stronger cysteine engagement by compound. As to conditions: 50 µM; treatment time: 4 h; cell line lysate: HEK293T. The procedure: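 IA-DTB competitive cysteine chemoproteomics in HEK293T RIPA lysate. Lysates were treated with compound 29 or 30 at 50 or 200 µM for 4 h, then IA-DTB (500 µM, 1 h), trypsin-digested, NeutrAvidin-enriched and analysed by diaPASEF. Competition ratio = intensity DMSO / intensity compound (n=4 treated, n=64 DMSO); binding: mean log2 CR ≥ 1 and p ≤ 0.05 plus QC filters. Target is the cysteine site.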
RASAL2 C415 (UniProt Q9UJF2): the “log2 mean competition ratio” value was -0.0281.

Consider RANBP3 C116 (UniProt Q9H6Z4), for which the “log2 mean competition ratio” value is -0.112.

For the target RBM26 C294 (UniProt Q5T8P6), the “log2 mean competition ratio” value was -0.0218.

Take RLF C1494 (UniProt Q13129): the “log2 mean competition ratio” value was 0.128.

Turning to RAPGEF6 C1368 (UniProt Q8TEU7), the “log2 mean competition ratio” value came to 0.126.

As to RASA3 C328 (UniProt Q14644), the “log2 mean competition ratio” value was -0.171.

As for RBM41 C43 (UniProt Q96IZ5), the “log2 mean competition ratio” value is 0.208.

In the case of RIPOR1 C289 (UniProt Q6ZS17), the “log2 mean competition ratio” value was determined as 0.156.

In the case of REXO1 C389 (UniProt Q8N1G1), the “log2 mean competition ratio” value is -0.0246.

Regarding RASSF4 C145, the “log2 mean competition ratio” value was -0.13.

Regarding RASA2 C436 (UniProt Q15283), the “log2 mean competition ratio” value is -0.109.

As to RDH10 C272 (UniProt Q8IZV5), the “log2 mean competition ratio” value was -0.083.

Regarding RALGAPA1 C1712 (UniProt Q6GYQ0), the “log2 mean competition ratio” value came to 0.767.

RANBP6 C31 (UniProt O60518): the “log2 mean competition ratio” value was determined as 0.23.

For RIC8A C79 (UniProt Q9NPQ8), the “log2 mean competition ratio” value is -0.18.

On to RBFA C315 (UniProt Q8N0V3), for which the “log2 mean competition ratio” value is -0.203.

For RBL1 C288 (UniProt P28749), the “log2 mean competition ratio” value is -0.272.

Turning to RMND5A C308 (UniProt Q9H871), the “log2 mean competition ratio” value came out at 0.256.

For RB1 C438 (UniProt P06400), the “log2 mean competition ratio” value is -0.115.

RAP1GAP2 C617 (UniProt Q684P5): the “log2 mean competition ratio” value is 0.114.

Consider RALGAPB C1442 (UniProt Q86X10), for which the “log2 mean competition ratio” value worked out at 0.0443.

In the case of RFC1 C118 (UniProt P35251), the “log2 mean competition ratio” value is -0.392.

On to RETSAT C534 (UniProt Q6NUM9), for which the “log2 mean competition ratio” value stood at 0.346.

As to RARS1 C502, the “log2 mean competition ratio” value was -0.155.

In the case of RLF C1609 (UniProt Q13129), the “log2 mean competition ratio” value is -0.19.

RBM48 C258 (UniProt Q5RL73): the “log2 mean competition ratio” value is -0.191.

For RARS2 C576 (UniProt Q5T160), the “log2 mean competition ratio” value stood at 0.0428.

Regarding RASSF1 C341 (UniProt Q9NS23), the “log2 mean competition ratio” value turned out to be 0.249.

Regarding RANBP9 C594 (UniProt Q96S59), the “log2 mean competition ratio” value was -0.45.

For RBL2 C635 (UniProt Q08999), the “log2 mean competition ratio” value stood at 0.0451.

Consider RBM33 C285 (UniProt Q96EV2), for which the “log2 mean competition ratio” value was 0.126.

In the case of RANBP2 C815 (UniProt P49792), the “log2 mean competition ratio” value is 0.293.

On to RIOK1 C361 (UniProt Q9BRS2), for which the “log2 mean competition ratio” value amounted to 0.202.

On to RBM4 C31 (UniProt Q9BWF3), for which the “log2 mean competition ratio” value is -0.0279.

Consider RB1 C666 (UniProt P06400), for which the “log2 mean competition ratio” value was -0.0834.

With RIPK2 C414 (UniProt O43353), the “log2 mean competition ratio” value was -0.15.

Regarding RASSF4 C236, the “log2 mean competition ratio” value was -0.0884.

The same test, now with this note: 200 µM; treatment time: 4 h; cell line lysate: HEK293T.
RASAL2 C415 (UniProt Q9UJF2): the “log2 mean competition ratio” value was 0.225.

RANBP3 C116 (UniProt Q9H6Z4): the “log2 mean competition ratio” value is -0.157.

With RBM26 C294 (UniProt Q5T8P6), the “log2 mean competition ratio” value turned out to be 0.221.

As to RLF C1494 (UniProt Q13129), the “log2 mean competition ratio” value is -0.434.

Consider RAPGEF6 C1368 (UniProt Q8TEU7), for which the “log2 mean competition ratio” value came to 0.483.

For RASA3 C328 (UniProt Q14644), the “log2 mean competition ratio” value came to 0.52.

For RBM41 C43 (UniProt Q96IZ5), the “log2 mean competition ratio” value was -0.03.

Take RIPOR1 C289 (UniProt Q6ZS17): the “log2 mean competition ratio” value is -0.104.

REXO1 C389 (UniProt Q8N1G1): the “log2 mean competition ratio” value is -0.173.

As to RASSF4 C145, the “log2 mean competition ratio” value is 0.299.

In the case of RASA2 C436 (UniProt Q15283), the “log2 mean competition ratio” value was -0.406.

Consider RDH10 C272 (UniProt Q8IZV5), for which the “log2 mean competition ratio” value was 0.344.

Take RALGAPA1 C1712 (UniProt Q6GYQ0): the “log2 mean competition ratio” value is -0.425.

On to RANBP6 C31 (UniProt O60518), for which the “log2 mean competition ratio” value was found to be 0.226.

Regarding RIC8A C79 (UniProt Q9NPQ8), the “log2 mean competition ratio” value was 0.421.

With RBFA C315 (UniProt Q8N0V3), the “log2 mean competition ratio” value is -0.342.

Regarding RMND5A C308 (UniProt Q9H871), the “log2 mean competition ratio” value came out at 0.195.

For the target RB1 C438 (UniProt P06400), the “log2 mean competition ratio” value was -0.0429.

With RAP1GAP2 C617 (UniProt Q684P5), the “log2 mean competition ratio” value is -0.416.

For the target RFC1 C118 (UniProt P35251), the “log2 mean competition ratio” value was -0.174.

Regarding RETSAT C534 (UniProt Q6NUM9), the “log2 mean competition ratio” value came out at 0.344.

RARS1 C502: the “log2 mean competition ratio” value turned out to be 0.0275.

Consider RLF C1609 (UniProt Q13129), for which the “log2 mean competition ratio” value stood at 0.16.

As for RBM48 C258 (UniProt Q5RL73), the “log2 mean competition ratio” value is 0.193.

As for RARS2 C576 (UniProt Q5T160), the “log2 mean competition ratio” value is 0.325.

For the target RASSF1 C341 (UniProt Q9NS23), the “log2 mean competition ratio” value was -0.136.

Turning to RANBP9 C594 (UniProt Q96S59), the “log2 mean competition ratio” value is 0.349.

As for RBL2 C635 (UniProt Q08999), the “log2 mean competition ratio” value is -0.135.

For the target RBM33 C285 (UniProt Q96EV2), the “log2 mean competition ratio” value is -0.656.

As for RANBP2 C815 (UniProt P49792), the “log2 mean competition ratio” value was -0.0835.

Take RIOK1 C361 (UniProt Q9BRS2): the “log2 mean competition ratio” value was -0.226.

Consider RBM4 C31 (UniProt Q9BWF3), for which the “log2 mean competition ratio” value is -0.221.

With RB1 C666 (UniProt P06400), the “log2 mean competition ratio” value was -0.202.

As for RIPK2 C414 (UniProt O43353), the “log2 mean competition ratio” value was -0.0378.

With RASSF4 C236, the “log2 mean competition ratio” value was determined as 0.0378.
